# Data reported in the supplement of paper PMC4604168 (melanoma cell lines).
# Some of the results follow. Repeats are few or missing, and single values can be far off.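 The apoptosis fraction was the count of cleaved-PARP antibody-stained nuclei relative to all DNA-stained nuclei, imaged in 1,536-well plates. Screening doses were set so most cells survived, and baseline and induced cleaved-PARP levels vary greatly across cell lines.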
# Test system: A101D
# Assay: cleaved PARP positive nuclei fraction relative to DMSO control; melanoma cells; higher = more apoptosis
# Conditions: library dose: low library concentration; 72 h
row,Structure (SMILES),cleaved PARP positive nuclei fraction [%]
1,"Cc1cc(Nc2cc(N3CCN(C)CC3)nc(Sc3ccc(NC(=O)C4CC4)cc3)n2)n[nH]1 [Tozasertib] + N#Cc1c(O)c2c(-c3ccc(-c4ccccc4O)cc3)csc2[nH]c1=O [A769662] (first compound 0.006 µM, partner dose 2 µM)",46.2
2,"O=C(Nc1cc(C(F)(F)F)cc(C(F)(F)F)c1)c1cc(Cl)ccc1O + COc1ccc(COc2ccc(Cc3cnc(N)nc3N)cc2OC)cc1 [GW2580] (first compound 0.016 µM, partner dose 1 µM)",27
3,"O=C(/C=C/c1cccnc1)NCCCCC1CCN(C(=O)c2ccccc2)CC1 + COc1cc(N2CCC(N3CCN(C)CC3)CC2)ccc1Nc1ncc(Cl)c(Nc2ccccc2S(=O)(=O)C(C)C)n1 [NVP-TAE684] (first compound 0.01 µM, partner dose 0.08 µM)",34
4,"N#CC[C@H](C1CCCC1)n1cc(-c2ncnc3[nH]ccc23)cn1 [ruxolitinib] + Cn1cc(/C=C2\C(=O)Nc3cccnc32)c2ccccc21 [GW441756] (first compound 1 µM, partner dose 0.4 µM)",58.4
5,"CCCCCCCCCCCCCCCCCCOP(=O)([O-])OC1CC[N+](C)(C)CC1 [Perifosine] + Oc1nc(-c2ccc(C(F)(F)F)cc2)nc2c1CSCC2 [XAV939] (first compound 0.4 µM, partner dose 2 µM)",13.9
6,"O=C(/C=C/c1cccnc1)NCCCCC1CCN(C(=O)c2ccccc2)CC1 + Oc1nc(-c2ccc(C(F)(F)F)cc2)nc2c1CSCC2 [XAV939] (first compound 0.01 µM, partner dose 2 µM)",11.6
7,"Cc1ccc(Nc2nccc(N(C)c3ccc4c(C)n(C)nc4c3)n2)cc1S(N)(=O)=O [Pazopanib] + N#Cc1c(O)c2c(-c3ccc(-c4ccccc4O)cc3)csc2[nH]c1=O [A769662] (first compound 0.4 µM, partner dose 2 µM)",9.11
8,"N#CC[C@H](C1CCCC1)n1cc(-c2ncnc3[nH]ccc23)cn1 [ruxolitinib] + COc1cc2ncnc(Nc3ccc(Oc4ccccc4)cc3)c2cc1OC [SrcI1] (first compound 1 µM, partner dose 2 µM)",16.9
9,"O=C(Nc1cc(C(F)(F)F)cc(C(F)(F)F)c1)c1cc(Cl)ccc1O + CCN(CC)CCCCNc1ncc2cc(-c3cc(OC)cc(OC)c3)c(NC(=O)NC(C)(C)C)nc2n1 [PD173074] (first compound 0.016 µM, partner dose 0.1 µM)",28.4
10,"CCCCCCCCCCCCCCCCCCOP(=O)([O-])OC1CC[N+](C)(C)CC1 [Perifosine] + COc1ccc2c(c1)CCC1C2CCC2(C)C(NCCCCCCN3C(=O)C=CC3=O)CCC12 [U73122] (first compound 0.4 µM, partner dose 0.4 µM)",34
11,"O=c1[nH]nc(Sc2ncc([N+](=O)[O-])s2)n1-c1ccc2c(c1)OCCO2 + N#Cc1c(O)c2c(-c3ccc(-c4ccccc4O)cc3)csc2[nH]c1=O [A769662] (first compound 0.2 µM, partner dose 2 µM)",16.6
12,"O=c1[nH]nc(Sc2ncc([N+](=O)[O-])s2)n1-c1ccc2c(c1)OCCO2 + COc1ccc2c(c1)CCC1C2CCC2(C)C(NCCCCCCN3C(=O)C=CC3=O)CCC12 [U73122] (first compound 0.2 µM, partner dose 0.4 µM)",14
13,"N#CC[C@H](C1CCCC1)n1cc(-c2ncnc3[nH]ccc23)cn1 [ruxolitinib] + O=C(Nc1ccccc1)c1cc([N+](=O)[O-])ccc1Cl [GW9662] (first compound 1 µM, partner dose 2 µM)",18.8
14,"O=C(/C=C/c1cccnc1)NCCCCC1CCN(C(=O)c2ccccc2)CC1 + O=c1cc(-c2cccc3c2Sc2ccccc2S3)oc(N2CCOCC2)c1 [KU55933] (first compound 0.01 µM, partner dose 1 µM)",32.9
15,"CCCCCCCCCCCCCCCCCCOP(=O)([O-])OC1CC[N+](C)(C)CC1 [Perifosine] + Cc1cc([N+](=O)[O-])ccc1NS(=O)(=O)c1cc(Cl)ccc1Cl [FH535] (first compound 0.4 µM, partner dose 1 µM)",8.23
16,"N#CC[C@H](C1CCCC1)n1cc(-c2ncnc3[nH]ccc23)cn1 [ruxolitinib] + O=S(=O)(c1ccccc1)N(CC(F)(F)F)c1ccc(C(O)(C(F)(F)F)C(F)(F)F)cc1 [T0901317] (first compound 1 µM, partner dose 1.4 µM)",21.3

row,Structure (SMILES),cleaved PARP positive nuclei fraction [%]
1,"Cc1cn(-c2cc(NC(=O)c3ccc(C)c(Nc4nccc(-c5cccnc5)n4)c3)cc(C(F)(F)F)c2)cn1 [nilotinib] + COC(=O)c1sccc1S(=O)(=O)Nc1ccc(Nc2ccccc2)cc1OC [GSK0660] (first compound 0.2 µM, partner dose 1 µM)",13.9
2,"Cc1ccc(Nc2nccc(N(C)c3ccc4c(C)n(C)nc4c3)n2)cc1S(N)(=O)=O [Pazopanib] + O=C(O)C(=O)Nc1sc2c(c1C(=O)O)CCNC2 [TCS401] (first compound 0.4 µM, partner dose 1.66667 µM)",31.1
3,"N#CC[C@H](C1CCCC1)n1cc(-c2ncnc3[nH]ccc23)cn1 [ruxolitinib] + COc1ccc(COc2ccc(Cc3cnc(N)nc3N)cc2OC)cc1 [GW2580] (first compound 1 µM, partner dose 1 µM)",24.5
4,"Cc1ccc(Nc2nccc(N(C)c3ccc4c(C)n(C)nc4c3)n2)cc1S(N)(=O)=O [Pazopanib] + CCc1ccc(CCOc2ccc(CC3SC(=O)NC3=O)cc2)nc1 [pioglitazone] (first compound 0.4 µM, partner dose 2 µM)",16.8
5,"Cc1cc(Nc2cc(N3CCN(C)CC3)nc(Sc3ccc(NC(=O)C4CC4)cc3)n2)n[nH]1 [Tozasertib] + c1cc(-c2cnn3cc(-c4ccc(OCCN5CCCCC5)cc4)cnc23)ccn1 [Dorsomorphin] (first compound 0.006 µM, partner dose 0.4 µM)",55.7
6,"Cc1ccc(Nc2nccc(N(C)c3ccc4c(C)n(C)nc4c3)n2)cc1S(N)(=O)=O [Pazopanib] + COC(=O)c1sccc1S(=O)(=O)Nc1ccc(Nc2ccccc2)cc1OC [GSK0660] (first compound 0.4 µM, partner dose 1 µM)",39.7
7,"COc1cc([C@@H]2c3cc4c(cc3[C@@H](O[C@@H]3O[C@@H]5CO[C@@H](C)O[C@H]5[C@H](O)[C@H]3O)[C@H]3COC(=O)[C@H]23)OCO4)cc(OC)c1O [etoposide] + O=S(=O)(c1ccccc1)N(CC(F)(F)F)c1ccc(C(O)(C(F)(F)F)C(F)(F)F)cc1 [T0901317] (first compound 0.02 µM, partner dose 1.4 µM)",33.6
8,"O=c1[nH]nc(Sc2ncc([N+](=O)[O-])s2)n1-c1ccc2c(c1)OCCO2 + c1cc(-c2cnn3cc(-c4ccc(OCCN5CCCCC5)cc4)cnc23)ccn1 [Dorsomorphin] (first compound 0.2 µM, partner dose 0.4 µM)",21.2
9,"Cc1cc(Nc2cc(N3CCN(C)CC3)nc(Sc3ccc(NC(=O)C4CC4)cc3)n2)n[nH]1 [Tozasertib] + Oc1cc(-c2nc(-c3ccccc3)[nH]c2-c2ccncc2)ccc1Cl [L779450] (first compound 0.006 µM, partner dose 0.2 µM)",30.9
10,"Cc1cc(Nc2cc(N3CCN(C)CC3)nc(Sc3ccc(NC(=O)C4CC4)cc3)n2)n[nH]1 [Tozasertib] + Cn1cc(/C=C2\C(=O)Nc3cccnc32)c2ccccc21 [GW441756] (first compound 0.006 µM, partner dose 0.4 µM)",27.8
11,"Cc1cn(-c2cc(NC(=O)c3ccc(C)c(Nc4nccc(-c5cccnc5)n4)c3)cc(C(F)(F)F)c2)cn1 [nilotinib] + O=C(O)C(=O)Nc1sc2c(c1C(=O)O)CCNC2 [TCS401] (first compound 0.2 µM, partner dose 1.66667 µM)",25.8
12,"Cc1cn(-c2cc(NC(=O)c3ccc(C)c(Nc4nccc(-c5cccnc5)n4)c3)cc(C(F)(F)F)c2)cn1 [nilotinib] + O=S(=O)(c1ccccc1)N(CC(F)(F)F)c1ccc(C(O)(C(F)(F)F)C(F)(F)F)cc1 [T0901317] (first compound 0.2 µM, partner dose 1.4 µM)",40.5
13,"COc1cc([C@@H]2c3cc4c(cc3[C@@H](O[C@@H]3O[C@@H]5CO[C@@H](C)O[C@H]5[C@H](O)[C@H]3O)[C@H]3COC(=O)[C@H]23)OCO4)cc(OC)c1O [etoposide] + Cc1cc([N+](=O)[O-])ccc1NS(=O)(=O)c1cc(Cl)ccc1Cl [FH535] (first compound 0.02 µM, partner dose 1 µM)",44.3
14,"N#CC[C@H](C1CCCC1)n1cc(-c2ncnc3[nH]ccc23)cn1 [ruxolitinib] + N#Cc1c(O)c2c(-c3ccc(-c4ccccc4O)cc3)csc2[nH]c1=O [A769662] (first compound 1 µM, partner dose 2 µM)",12
15,"COc1cc([C@@H]2c3cc4c(cc3[C@@H](O[C@@H]3O[C@@H]5CO[C@@H](C)O[C@H]5[C@H](O)[C@H]3O)[C@H]3COC(=O)[C@H]23)OCO4)cc(OC)c1O [etoposide] + O=C1NC(=O)/C(=C/c2ccc(-c3ccc(F)cc3O)o2)S1 [AS252424] (first compound 0.02 µM, partner dose 1 µM)",21.6

# No new results follow: entries from further up.
row,Structure (SMILES),cleaved PARP positive nuclei fraction [%]
8,"O=c1[nH]nc(Sc2ncc([N+](=O)[O-])s2)n1-c1ccc2c(c1)OCCO2 + c1cc(-c2cnn3cc(-c4ccc(OCCN5CCCCC5)cc4)cnc23)ccn1 [Dorsomorphin] (first compound 0.2 µM, partner dose 0.4 µM)",21.2
9,"Cc1cc(Nc2cc(N3CCN(C)CC3)nc(Sc3ccc(NC(=O)C4CC4)cc3)n2)n[nH]1 [Tozasertib] + Oc1cc(-c2nc(-c3ccccc3)[nH]c2-c2ccncc2)ccc1Cl [L779450] (first compound 0.006 µM, partner dose 0.2 µM)",30.9
